According to article PMC6980355 (Journal of medicinal chemistry, 2019):

System: P. aeruginosa INV(muxA-mexZ) mutant (efflux-compromised background)
Format: cell-based
Conditions: data not shown

In the case of `O=C(O)c1cn(C2CC2)c2cc(N3CCNCC3)c(F)cc2c1=O` [ciprofloxacin, reference compound], the “effect of muxA-mexZ inversion on potency” value is reported as “reduced the potency”.
